For assay [1], the target named is β1 integrin (human) (UniProt P05556). Briefly: His-tag pull-down on nickel beads from NHDF lysate, Western blot for β1 integrin.
Assay [2] has the same target. Briefly: Western blot of the pull-down (legend of FIG. 10). Background: In western blotting, separated proteins are transferred to a membrane and probed.

Sequences of proteins named here, by UniProt entry; tags and fusion partners are left off. Residues count along the entry.
UniProt P05556: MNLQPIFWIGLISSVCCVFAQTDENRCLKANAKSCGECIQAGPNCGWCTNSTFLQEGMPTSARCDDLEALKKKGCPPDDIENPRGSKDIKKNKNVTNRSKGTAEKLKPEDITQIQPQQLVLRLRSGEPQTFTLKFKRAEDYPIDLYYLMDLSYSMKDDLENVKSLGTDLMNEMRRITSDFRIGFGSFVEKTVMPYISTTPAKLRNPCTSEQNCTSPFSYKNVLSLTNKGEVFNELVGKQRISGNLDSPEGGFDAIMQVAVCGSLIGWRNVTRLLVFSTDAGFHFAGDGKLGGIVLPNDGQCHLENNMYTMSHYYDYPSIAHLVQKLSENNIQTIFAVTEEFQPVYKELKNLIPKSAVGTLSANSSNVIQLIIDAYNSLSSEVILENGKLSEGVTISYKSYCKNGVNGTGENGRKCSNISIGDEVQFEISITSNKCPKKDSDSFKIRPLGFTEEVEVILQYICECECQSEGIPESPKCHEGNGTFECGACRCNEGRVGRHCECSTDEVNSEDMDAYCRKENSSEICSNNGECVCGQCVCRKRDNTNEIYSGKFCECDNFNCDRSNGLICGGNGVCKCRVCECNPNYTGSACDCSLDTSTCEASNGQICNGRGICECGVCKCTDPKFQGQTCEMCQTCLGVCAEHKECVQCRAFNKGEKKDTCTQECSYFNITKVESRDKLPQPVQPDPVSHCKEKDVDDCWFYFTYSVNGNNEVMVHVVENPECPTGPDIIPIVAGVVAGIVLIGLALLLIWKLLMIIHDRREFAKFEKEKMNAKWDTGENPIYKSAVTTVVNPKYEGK
UniProt P06473, residues 57-146: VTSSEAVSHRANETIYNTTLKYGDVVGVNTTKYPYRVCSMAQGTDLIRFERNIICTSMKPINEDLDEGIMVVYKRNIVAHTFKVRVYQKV

Results are given in words; binding and its absence hold for the method and conditions named. For some assays here: Binding seen in cells or lysates may run through a third protein. Some results given as binding are weak or reduced against the parent protein; the word gives no strength.

In the case of “HCMV AD169 glycoprotein B disintegrin-like domain (amino acids 57-146), His-tagged, expressed in E. coli (from UniProt P06473 57-146)”, the binding entry in the assay with β1 integrin (human) [1] and with β1 integrin (human) [2] was “binds” throughout.
